PMC11792579
Where a chain is given by its changes, count along the chain named. These are yes or no findings as the source states them, for the method shown. In cells and extracts the contact can be indirect. Some results given as binding are weak or reduced against the parent protein; the word gives no strength. Tags and fused reporters may be left off the sequences shown.

Chains of the proteins cited; added tags and fusions are not shown.
UniProt O95071: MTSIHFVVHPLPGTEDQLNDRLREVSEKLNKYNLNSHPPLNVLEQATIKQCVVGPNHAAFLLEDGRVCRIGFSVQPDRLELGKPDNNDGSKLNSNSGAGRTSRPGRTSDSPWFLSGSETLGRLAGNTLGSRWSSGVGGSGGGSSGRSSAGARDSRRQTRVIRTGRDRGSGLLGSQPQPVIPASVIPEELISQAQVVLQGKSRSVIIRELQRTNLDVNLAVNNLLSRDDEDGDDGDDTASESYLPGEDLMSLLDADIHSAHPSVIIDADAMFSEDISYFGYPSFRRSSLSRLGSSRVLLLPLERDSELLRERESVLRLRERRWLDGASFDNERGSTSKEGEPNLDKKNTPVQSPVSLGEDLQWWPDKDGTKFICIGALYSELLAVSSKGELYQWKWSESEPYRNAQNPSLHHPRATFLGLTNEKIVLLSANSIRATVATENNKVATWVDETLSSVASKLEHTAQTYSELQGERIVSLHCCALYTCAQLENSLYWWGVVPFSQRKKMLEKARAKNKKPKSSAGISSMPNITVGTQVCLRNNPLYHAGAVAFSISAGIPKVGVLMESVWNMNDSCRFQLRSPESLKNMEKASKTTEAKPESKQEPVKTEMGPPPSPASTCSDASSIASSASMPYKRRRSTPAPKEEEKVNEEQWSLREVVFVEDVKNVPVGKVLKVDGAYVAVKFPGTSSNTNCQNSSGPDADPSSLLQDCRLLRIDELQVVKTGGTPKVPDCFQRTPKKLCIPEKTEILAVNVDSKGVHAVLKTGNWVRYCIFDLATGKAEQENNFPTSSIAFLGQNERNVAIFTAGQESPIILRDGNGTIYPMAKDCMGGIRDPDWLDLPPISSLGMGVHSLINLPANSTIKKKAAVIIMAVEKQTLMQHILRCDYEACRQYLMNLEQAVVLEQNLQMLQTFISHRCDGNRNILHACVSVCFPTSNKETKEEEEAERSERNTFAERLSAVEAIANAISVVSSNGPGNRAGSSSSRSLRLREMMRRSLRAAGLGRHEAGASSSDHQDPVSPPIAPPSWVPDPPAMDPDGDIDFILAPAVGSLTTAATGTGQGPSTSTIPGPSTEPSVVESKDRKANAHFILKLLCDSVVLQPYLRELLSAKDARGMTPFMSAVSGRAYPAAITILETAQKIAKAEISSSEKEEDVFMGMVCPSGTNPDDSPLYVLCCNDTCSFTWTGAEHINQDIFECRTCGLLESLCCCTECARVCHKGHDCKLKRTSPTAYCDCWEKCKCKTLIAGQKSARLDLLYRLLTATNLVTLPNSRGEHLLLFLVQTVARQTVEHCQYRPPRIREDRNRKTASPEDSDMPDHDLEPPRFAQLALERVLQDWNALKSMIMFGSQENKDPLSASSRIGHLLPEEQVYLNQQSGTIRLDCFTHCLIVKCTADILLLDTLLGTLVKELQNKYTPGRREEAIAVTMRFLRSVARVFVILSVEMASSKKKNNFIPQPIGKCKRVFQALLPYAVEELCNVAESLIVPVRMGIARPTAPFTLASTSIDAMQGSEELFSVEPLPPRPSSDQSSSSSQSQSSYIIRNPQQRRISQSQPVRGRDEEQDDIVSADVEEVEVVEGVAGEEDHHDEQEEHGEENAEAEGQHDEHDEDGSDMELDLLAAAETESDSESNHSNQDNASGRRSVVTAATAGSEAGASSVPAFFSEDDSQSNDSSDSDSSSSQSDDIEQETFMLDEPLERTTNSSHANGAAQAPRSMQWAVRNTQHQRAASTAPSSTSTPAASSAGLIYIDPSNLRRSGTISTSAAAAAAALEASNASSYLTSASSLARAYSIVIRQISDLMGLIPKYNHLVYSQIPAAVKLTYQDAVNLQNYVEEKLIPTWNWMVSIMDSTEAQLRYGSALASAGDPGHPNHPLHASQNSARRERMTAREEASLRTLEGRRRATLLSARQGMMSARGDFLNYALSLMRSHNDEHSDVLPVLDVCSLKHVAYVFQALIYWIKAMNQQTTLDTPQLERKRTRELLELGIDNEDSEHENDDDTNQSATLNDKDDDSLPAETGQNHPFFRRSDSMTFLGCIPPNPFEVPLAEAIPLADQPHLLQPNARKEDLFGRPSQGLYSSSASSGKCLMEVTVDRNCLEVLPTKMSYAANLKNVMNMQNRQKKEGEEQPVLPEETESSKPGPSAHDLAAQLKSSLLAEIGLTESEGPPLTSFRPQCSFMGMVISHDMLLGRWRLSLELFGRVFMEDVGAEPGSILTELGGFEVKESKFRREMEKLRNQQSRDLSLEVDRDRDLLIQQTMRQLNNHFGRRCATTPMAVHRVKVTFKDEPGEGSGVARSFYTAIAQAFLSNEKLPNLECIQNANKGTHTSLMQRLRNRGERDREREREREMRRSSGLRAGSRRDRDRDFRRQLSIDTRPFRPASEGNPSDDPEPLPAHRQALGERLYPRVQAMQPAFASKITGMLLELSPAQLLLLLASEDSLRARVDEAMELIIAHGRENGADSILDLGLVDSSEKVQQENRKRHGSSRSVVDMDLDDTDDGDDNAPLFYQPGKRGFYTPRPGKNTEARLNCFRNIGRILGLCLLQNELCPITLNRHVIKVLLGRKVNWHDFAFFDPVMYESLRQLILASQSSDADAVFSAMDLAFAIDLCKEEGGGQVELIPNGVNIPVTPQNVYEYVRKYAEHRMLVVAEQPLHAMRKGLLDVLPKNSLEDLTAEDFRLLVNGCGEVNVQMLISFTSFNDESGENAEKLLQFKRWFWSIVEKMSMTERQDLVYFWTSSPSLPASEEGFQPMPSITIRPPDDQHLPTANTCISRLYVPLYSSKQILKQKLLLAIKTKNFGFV

What was measured:
HA-NAT10 K262R = target: T1, HA-NAT10 K262R (UniProt Q9H0A0); assay: co-IP; HA-NAT10 (WT or K-R mutants) co-expressed with MYC-Ub and Flag-UBR5; MG132 (100 nM, 8 h); IP with HA antibody, immunoblotting
T1 sequence: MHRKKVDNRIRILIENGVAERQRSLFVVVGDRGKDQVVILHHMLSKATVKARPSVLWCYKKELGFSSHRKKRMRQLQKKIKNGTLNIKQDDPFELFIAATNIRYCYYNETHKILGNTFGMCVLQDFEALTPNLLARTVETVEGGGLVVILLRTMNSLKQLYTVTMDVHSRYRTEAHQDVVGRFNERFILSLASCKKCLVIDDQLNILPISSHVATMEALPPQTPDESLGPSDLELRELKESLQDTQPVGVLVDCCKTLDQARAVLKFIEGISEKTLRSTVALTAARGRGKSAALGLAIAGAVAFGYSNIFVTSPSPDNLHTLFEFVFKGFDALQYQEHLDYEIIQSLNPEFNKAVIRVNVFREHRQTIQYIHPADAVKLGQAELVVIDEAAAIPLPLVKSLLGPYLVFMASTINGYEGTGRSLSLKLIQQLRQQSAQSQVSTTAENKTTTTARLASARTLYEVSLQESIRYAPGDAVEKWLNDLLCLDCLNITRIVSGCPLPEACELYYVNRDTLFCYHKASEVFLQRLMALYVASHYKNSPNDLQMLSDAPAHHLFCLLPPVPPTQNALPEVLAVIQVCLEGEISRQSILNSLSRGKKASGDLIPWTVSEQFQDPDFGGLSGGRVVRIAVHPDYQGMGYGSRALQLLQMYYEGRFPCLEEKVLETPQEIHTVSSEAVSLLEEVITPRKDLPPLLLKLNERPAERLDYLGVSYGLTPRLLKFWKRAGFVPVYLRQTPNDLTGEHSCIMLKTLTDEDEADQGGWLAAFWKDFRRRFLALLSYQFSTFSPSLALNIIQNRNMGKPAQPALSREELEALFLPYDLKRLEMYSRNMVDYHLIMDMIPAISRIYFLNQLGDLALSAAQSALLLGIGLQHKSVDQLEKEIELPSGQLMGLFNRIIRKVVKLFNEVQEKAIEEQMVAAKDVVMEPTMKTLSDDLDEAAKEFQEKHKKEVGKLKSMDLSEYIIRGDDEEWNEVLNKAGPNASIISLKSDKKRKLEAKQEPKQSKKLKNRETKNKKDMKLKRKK

HA-NAT10 K426R = target: T2, HA-NAT10 K426R (UniProt Q9H0A0); assay: as above
T2 sequence: T1 sequence with R262K, K426R

- binding (HA-NAT10 K262R): binds
- binding (HA-NAT10 K426R): binds
Substance: FLAG-UBR5 (from UniProt O95071 1-2799)
